The supplement of paper PMC12823440, “Inhibitors supercharge kinase turnover through native proteolytic circuits” (Nature, 2025)
Where a name gives a salt, the structure may show the parent alone. The list shows a part of the results. Hit calls seldom repeat between salt and free forms of one compound.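 Kinases were expressed as nanoluciferase fusions in K562 cells and luminescence was read every 4 h between 2 and 18 h as percent of control, DMSO set to 100% and a positive control to 0%. A time point counts as decreased when the signal drops significantly (2 sigma). The hit call is the authors' own, does not follow from the count of time points alone, and its rule is not shown.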

Amino acid sequences for entries named in this document (tags omitted). A change or cut given only in a name is not applied to a line headed by its entry.
UniProt P42680: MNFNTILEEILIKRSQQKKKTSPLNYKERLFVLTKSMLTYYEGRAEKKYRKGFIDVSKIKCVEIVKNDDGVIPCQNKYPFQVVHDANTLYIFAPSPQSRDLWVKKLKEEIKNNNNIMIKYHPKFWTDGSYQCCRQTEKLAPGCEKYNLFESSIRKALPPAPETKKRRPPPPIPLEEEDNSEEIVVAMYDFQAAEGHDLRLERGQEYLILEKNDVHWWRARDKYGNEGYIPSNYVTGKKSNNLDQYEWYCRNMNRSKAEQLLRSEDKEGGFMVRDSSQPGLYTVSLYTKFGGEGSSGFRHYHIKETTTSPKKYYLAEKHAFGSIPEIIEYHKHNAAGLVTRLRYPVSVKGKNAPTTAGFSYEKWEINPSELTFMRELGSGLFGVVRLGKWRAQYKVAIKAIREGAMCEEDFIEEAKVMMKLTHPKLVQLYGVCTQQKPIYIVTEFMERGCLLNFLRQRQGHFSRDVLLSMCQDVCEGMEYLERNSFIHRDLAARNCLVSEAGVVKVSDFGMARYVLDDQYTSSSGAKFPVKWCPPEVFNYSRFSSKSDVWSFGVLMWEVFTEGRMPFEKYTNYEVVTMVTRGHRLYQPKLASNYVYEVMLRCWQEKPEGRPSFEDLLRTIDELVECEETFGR
UniProt P07947, whole entry, looked up: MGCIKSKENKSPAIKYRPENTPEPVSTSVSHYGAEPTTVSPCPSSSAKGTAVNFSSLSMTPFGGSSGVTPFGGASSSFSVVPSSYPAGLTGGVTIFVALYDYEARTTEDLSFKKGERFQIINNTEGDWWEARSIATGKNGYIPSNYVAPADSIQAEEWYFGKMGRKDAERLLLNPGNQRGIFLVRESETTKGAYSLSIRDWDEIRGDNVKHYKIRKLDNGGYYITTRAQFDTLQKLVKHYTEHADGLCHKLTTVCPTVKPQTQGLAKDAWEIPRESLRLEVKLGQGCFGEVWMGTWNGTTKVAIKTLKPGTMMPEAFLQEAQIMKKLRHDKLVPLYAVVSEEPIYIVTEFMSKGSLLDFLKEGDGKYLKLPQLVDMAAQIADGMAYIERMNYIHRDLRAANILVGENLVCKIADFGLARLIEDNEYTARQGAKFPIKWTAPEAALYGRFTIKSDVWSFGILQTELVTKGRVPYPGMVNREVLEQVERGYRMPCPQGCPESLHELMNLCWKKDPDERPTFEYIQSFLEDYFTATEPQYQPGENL
UniProt P00519, whole entry: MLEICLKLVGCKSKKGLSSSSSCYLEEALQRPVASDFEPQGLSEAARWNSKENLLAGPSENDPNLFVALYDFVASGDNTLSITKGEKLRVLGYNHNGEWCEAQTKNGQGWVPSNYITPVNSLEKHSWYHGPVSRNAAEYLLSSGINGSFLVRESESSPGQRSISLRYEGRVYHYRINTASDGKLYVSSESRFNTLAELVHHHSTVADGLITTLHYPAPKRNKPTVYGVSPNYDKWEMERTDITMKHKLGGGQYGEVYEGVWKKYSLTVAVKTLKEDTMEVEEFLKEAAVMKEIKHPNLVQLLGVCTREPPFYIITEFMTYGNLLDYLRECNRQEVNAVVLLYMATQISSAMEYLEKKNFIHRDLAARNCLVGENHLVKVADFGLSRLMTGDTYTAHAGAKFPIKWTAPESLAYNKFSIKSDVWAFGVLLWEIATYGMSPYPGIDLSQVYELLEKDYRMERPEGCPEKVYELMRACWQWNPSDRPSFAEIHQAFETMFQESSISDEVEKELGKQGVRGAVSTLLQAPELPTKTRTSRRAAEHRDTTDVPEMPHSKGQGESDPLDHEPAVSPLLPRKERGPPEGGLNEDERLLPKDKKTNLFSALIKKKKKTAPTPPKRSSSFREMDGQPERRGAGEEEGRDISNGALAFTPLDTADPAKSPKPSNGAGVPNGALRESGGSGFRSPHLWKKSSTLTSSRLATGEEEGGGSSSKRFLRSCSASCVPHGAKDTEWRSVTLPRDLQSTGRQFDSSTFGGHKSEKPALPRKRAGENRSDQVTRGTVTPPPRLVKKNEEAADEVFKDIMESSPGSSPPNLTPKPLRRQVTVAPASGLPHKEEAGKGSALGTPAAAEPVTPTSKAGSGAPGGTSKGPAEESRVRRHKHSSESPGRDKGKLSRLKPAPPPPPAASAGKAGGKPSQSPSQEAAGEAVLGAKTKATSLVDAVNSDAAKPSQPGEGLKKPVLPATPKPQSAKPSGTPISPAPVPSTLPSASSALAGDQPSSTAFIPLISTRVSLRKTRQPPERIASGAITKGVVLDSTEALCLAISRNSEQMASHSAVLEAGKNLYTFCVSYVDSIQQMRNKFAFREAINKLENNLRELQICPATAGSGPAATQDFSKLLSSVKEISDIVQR
UniProt Q9UM73: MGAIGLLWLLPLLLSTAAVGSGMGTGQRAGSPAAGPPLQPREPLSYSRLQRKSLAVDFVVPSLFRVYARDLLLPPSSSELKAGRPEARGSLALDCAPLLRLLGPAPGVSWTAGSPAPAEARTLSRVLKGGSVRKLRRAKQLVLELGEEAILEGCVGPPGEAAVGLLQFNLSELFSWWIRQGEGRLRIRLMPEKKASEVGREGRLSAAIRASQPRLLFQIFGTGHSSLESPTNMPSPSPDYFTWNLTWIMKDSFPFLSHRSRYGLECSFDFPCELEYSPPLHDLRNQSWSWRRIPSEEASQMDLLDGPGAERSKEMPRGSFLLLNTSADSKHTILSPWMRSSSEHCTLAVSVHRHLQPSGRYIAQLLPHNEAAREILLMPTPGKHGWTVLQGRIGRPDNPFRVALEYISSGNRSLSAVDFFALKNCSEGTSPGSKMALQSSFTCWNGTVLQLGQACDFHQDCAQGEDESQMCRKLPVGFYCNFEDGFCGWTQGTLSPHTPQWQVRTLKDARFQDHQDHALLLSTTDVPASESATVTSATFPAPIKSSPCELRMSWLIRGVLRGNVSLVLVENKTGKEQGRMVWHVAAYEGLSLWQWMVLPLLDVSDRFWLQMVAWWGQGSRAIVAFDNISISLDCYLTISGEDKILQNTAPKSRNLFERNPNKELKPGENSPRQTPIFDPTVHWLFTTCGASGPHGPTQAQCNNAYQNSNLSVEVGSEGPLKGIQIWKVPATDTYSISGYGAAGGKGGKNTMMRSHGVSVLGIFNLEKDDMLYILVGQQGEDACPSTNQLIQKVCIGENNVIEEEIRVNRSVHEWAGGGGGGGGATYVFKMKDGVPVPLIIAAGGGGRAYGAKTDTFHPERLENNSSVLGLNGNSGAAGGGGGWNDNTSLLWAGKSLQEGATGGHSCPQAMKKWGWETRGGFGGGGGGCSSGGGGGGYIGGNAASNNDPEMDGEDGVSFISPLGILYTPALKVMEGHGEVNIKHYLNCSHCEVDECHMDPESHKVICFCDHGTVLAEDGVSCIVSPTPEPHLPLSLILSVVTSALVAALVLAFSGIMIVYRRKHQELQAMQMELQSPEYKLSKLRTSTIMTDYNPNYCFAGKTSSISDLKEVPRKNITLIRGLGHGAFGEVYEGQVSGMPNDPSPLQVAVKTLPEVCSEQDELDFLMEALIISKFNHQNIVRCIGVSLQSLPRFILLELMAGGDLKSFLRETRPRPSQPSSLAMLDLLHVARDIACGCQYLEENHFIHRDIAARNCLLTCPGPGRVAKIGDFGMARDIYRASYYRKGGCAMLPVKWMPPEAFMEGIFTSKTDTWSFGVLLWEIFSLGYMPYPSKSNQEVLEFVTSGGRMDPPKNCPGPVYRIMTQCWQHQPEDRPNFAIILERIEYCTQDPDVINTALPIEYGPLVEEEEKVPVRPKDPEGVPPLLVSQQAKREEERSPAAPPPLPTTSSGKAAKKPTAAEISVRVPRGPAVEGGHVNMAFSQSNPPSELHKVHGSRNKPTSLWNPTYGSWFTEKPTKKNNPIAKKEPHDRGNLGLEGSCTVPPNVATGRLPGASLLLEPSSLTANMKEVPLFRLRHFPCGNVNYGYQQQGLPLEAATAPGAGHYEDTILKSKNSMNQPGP
UniProt P10398: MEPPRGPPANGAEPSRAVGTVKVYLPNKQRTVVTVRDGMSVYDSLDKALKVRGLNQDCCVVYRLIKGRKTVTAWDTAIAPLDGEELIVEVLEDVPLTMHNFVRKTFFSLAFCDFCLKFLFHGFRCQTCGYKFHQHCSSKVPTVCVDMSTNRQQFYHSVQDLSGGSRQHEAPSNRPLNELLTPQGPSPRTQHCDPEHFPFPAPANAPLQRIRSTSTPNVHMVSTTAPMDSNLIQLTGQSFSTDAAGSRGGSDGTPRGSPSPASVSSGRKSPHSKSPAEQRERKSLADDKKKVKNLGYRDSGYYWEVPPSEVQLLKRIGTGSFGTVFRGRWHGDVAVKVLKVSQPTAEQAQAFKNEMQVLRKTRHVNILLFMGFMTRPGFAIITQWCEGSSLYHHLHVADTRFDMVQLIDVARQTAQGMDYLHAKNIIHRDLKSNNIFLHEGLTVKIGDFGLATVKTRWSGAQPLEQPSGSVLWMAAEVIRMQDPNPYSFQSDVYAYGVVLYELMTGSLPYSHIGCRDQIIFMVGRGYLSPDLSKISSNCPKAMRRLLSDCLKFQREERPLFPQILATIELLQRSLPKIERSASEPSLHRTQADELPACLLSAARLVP
UniProt Q96GD4, whole entry: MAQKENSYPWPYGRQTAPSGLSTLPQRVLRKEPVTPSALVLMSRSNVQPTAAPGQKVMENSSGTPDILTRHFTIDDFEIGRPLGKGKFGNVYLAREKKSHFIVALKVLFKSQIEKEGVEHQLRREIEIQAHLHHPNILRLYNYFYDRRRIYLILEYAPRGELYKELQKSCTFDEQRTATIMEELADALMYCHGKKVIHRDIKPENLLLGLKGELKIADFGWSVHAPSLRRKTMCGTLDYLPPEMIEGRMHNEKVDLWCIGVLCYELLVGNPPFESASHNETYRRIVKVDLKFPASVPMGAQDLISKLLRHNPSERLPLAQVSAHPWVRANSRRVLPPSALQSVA
UniProt Q9UQB9: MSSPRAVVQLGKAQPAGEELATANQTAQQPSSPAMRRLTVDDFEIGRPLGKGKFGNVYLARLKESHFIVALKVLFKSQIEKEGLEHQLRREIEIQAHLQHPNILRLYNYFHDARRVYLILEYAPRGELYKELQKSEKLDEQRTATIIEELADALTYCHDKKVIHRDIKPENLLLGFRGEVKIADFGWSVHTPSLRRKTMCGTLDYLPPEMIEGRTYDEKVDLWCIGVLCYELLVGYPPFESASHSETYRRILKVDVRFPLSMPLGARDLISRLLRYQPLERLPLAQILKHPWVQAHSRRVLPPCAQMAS
UniProt P51813: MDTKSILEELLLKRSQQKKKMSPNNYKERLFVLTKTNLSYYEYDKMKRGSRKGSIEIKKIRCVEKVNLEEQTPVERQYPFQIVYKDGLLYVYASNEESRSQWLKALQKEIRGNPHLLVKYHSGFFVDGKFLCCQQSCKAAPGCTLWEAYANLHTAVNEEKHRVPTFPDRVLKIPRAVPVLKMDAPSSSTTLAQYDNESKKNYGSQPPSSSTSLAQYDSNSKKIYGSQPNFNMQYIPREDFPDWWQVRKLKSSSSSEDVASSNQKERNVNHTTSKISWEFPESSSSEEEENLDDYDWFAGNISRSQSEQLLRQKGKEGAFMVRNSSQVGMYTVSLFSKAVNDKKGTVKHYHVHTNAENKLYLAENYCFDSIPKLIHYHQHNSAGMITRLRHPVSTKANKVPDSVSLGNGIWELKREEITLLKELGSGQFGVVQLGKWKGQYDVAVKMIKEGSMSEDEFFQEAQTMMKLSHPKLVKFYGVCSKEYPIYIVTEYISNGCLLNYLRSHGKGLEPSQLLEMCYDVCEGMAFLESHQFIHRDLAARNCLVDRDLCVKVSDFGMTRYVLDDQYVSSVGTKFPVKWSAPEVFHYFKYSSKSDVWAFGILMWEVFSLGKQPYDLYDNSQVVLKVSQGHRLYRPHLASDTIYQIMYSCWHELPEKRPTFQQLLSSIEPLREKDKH
UniProt Q06187: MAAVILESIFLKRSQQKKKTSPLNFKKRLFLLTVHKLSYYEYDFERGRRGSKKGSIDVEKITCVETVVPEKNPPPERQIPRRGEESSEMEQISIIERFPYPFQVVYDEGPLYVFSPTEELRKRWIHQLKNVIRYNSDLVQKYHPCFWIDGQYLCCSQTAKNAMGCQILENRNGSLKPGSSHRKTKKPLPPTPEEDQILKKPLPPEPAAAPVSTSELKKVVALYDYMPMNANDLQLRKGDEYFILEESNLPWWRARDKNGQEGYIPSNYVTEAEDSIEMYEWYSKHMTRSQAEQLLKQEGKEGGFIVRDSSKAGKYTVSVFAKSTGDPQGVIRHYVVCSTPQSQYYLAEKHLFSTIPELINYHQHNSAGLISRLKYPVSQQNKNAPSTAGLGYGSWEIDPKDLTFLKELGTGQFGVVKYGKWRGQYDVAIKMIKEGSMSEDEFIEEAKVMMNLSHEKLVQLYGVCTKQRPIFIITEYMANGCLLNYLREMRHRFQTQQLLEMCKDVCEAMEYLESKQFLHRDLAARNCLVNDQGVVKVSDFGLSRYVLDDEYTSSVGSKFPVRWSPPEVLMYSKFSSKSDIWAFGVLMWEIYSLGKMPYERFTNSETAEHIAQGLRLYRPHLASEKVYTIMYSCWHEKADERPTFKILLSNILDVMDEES

How the values were obtained:
Settings in all cases: K562; 2-18 h
[1] = target: STK38 (UniProt Q15208); assay: kinase-Nluc reporter destabilization hit call (1 = scored as downregulated) (binary); higher = compound decreases kinase abundance
[2] = target: SYK (UniProt P43405); assay: as above
[3] = target: TEC (UniProt P42680); assay: as above
[4] = target: TYK2 (UniProt P29597); assay: as above
[5] = target: ULK3 (UniProt Q6PHR2); assay: as above
[6] = target: YES1 (UniProt P07947); assay: as above
[7] = target: ZAK (UniProt Q9NYL2); assay: as above
[8] = target: ZAP70 (UniProt P43403); assay: as above
[9] = target: ABL1 (UniProt P00519); assay: number of time points (of 5) at which kinase-Nluc abundance scored as decreased, DMSO-normalised (count); higher = more persistent destabilization
[10] = target: AKT1 (UniProt P31749); assay: as above
[11] = target: ALK (UniProt Q9UM73); assay: as above
[12] = target: ARAF (UniProt P10398); assay: as above
[13] = target: AURKA (UniProt O14965); assay: as above
[14] = target: AURKB (UniProt Q96GD4); assay: as above
[15] = target: AURKC (UniProt Q9UQB9); assay: as above
[16] = target: BLK (UniProt P51451); assay: as above
[17] = target: BMX (UniProt P51813); assay: as above
[18] = target: BRAF (UniProt P15056); assay: as above
[19] = test system: BRAF_V600E; assay: as above
[20] = target: BTK (UniProt Q06187); assay: as above

Compound | kinase-Nluc reporter destabilization hit call [1] | kinase-Nluc reporter destabilization hit call [2] | kinase-Nluc reporter destabilization hit call [3] | kinase-Nluc reporter destabilization hit call [4] | kinase-Nluc reporter destabilization hit call [5] | kinase-Nluc reporter destabilization hit call [6] | kinase-Nluc reporter destabilization hit call [7] | kinase-Nluc reporter destabilization hit call [8] | number of time points [9] | number of time points [10] | number of time points [11] | number of time points [12] | number of time points [13] | number of time points [14] | number of time points [15] | number of time points [16] | number of time points [17] | number of time points [18] | number of time points [19] | number of time points [20]
NC(=O)c1cnc(-c2ccc(C3(N)CCC3)cc2)c(-c2ccccc2)c1 (10 µM) | inactive: 0 | inactive: 0 | inactive: 0 | inactive: 0 | inactive: 0 | inactive: 0 | inactive: 0 | inactive: 0 | 0 | 0 | 0 | 0 | 0 | 0 | 0 | 0 | 0 | 0 | 0 | 0
Cn1cc(-c2cc(Oc3cc(F)c(NC(=O)C4(C(=O)Nc5ccccc5)CC4)cc3F)ccn2)cn1 (2.5 µM) | inactive: 0 | inactive: 0 | inactive: 0 | inactive: 0 | inactive: 0 | inactive: 0 | inactive: 0 | inactive: 0 | 0 | 0 | 0 | 0 | 0 | 0 | 0 | 0 | 0 | 0 | 0 | 0
COCCOCCc1c(C)c2cc(OC)c(O)c(C=O)c2oc1=O (10 µM) | inactive: 0 | inactive: 0 | inactive: 0 | inactive: 0 | inactive: 0 | inactive: 0 | inactive: 0 | inactive: 0 | 0 | 0 | 0 | 0 | 0 | 0 | 0 | 0 | 0 | 0 | 0 | 0
Cc1cc(C(=O)NC(C)(C)C)cc(C#Cc2ccc3c4c(oc3c2)C(C)(C)c2cc(NS(C)(=O)=O)ccc2C4=O)n1 (10 µM) | inactive: 0 | inactive: 0 | inactive: 0 | inactive: 0 | inactive: 0 | inactive: 0 | inactive: 0 | inactive: 0 | 2 | 0 | 0 | 0 | 0 | 0 | 0 | 0 | 0 | 0 | 0 | 0
c1ccc(Cn2c(-c3ccc(OC[C@H](C4CCNCC4)n4c(-c5ccccc5)nc5ccccc54)cc3)nc3ccccc32)cc1 [Deltarasin] (2.5 µM) | inactive: 0 | inactive: 0 | inactive: 0 | inactive: 0 | inactive: 0 | inactive: 0 | inactive: 0 | inactive: 0 | 0 | 0 | 0 | 0 | 0 | 0 | 0 | 0 | 0 | 0 | 0 | 0
CCN(CC)CCOc1ccc(Nc2nc(-c3ccccc3NC(=O)CCN3CCN(C)CC3)nc3ccccc23)cc1 (2.5 µM) | inactive: 0 | inactive: 0 | inactive: 0 | inactive: 0 | inactive: 0 | inactive: 0 | inactive: 0 | inactive: 0 | 0 | 0 | 0 | 0 | 0 | 0 | 0 | 0 | 0 | 0 | 0 | 0
COc1cc(N2CCOCC2)ccc1Nc1ncc(F)c(Nc2ccccc2NS(C)(=O)=O)n1 (10 µM) | inactive: 0 | inactive: 0 | inactive: 0 | inactive: 0 | inactive: 0 | inactive: 0 | inactive: 0 | inactive: 0 | 0 | 0 | 0 | 0 | 0 | 0 | 0 | 0 | 0 | 0 | 0 | 0
O=c1cc(-c2ccccc2)oc2cc(O[C@@H]3O[C@H](CO[C@@H]4O[C@H](CO)[C@@H](O)[C@H](O)[C@H]4O)[C@@H](O)[C@H](O)[C@H]3O)c(O)c(O)c12 [Oroxin B] (10 µM) | inactive: 0 | inactive: 0 | inactive: 0 | inactive: 0 | inactive: 0 | inactive: 0 | inactive: 0 | inactive: 0 | 0 | 0 | 0 | 0 | 0 | 0 | 0 | 0 | 0 | 0 | 0 | 0
CNC(=O)CNc1cnc2ccc(-c3ccc(OC)c(OC)c3)cc2n1 (10 µM) | inactive: 0 | inactive: 0 | inactive: 0 | inactive: 0 | inactive: 0 | inactive: 0 | inactive: 0 | inactive: 0 | 0 | 0 | 0 | 0 | 0 | 0 | 0 | 0 | 0 | 0 | 0 | 0
CNC(=O)c1ccc2c(c1)ncn2-c1ccc(CC(=O)OC(C)(C)C)cc1 (10 µM) | inactive: 0 | inactive: 0 | inactive: 0 | inactive: 0 | inactive: 0 | inactive: 0 | inactive: 0 | inactive: 0 | 0 | 0 | 0 | 0 | 0 | 0 | 0 | 0 | 0 | 0 | 0 | 0
Clc1ccc(C(c2ccc(Cl)cc2)[n+]2ccn(CC(OCc3ccc(Cl)cc3Cl)c3ccc(Cl)cc3Cl)c2)cc1 (stereo not given) [Calmidazolium chloride] (2.5 µM) | inactive: 0 | inactive: 0 | inactive: 0 | inactive: 0 | inactive: 0 | inactive: 0 | inactive: 0 | inactive: 0 | 4 | 0 | 0 | 0 | 3 | 1 | 0 | 3 | 0 | 0 | 2 | 0
Cc1c(Cl)cccc1S(=O)(=O)Nc1nc(NCCc2ccccc2)nc2c1CN(Cc1ccccc1)CC2 (2.5 µM) | inactive: 0 | inactive: 0 | inactive: 0 | inactive: 0 | inactive: 0 | inactive: 0 | inactive: 0 | inactive: 0 | 0 | 0 | 0 | 0 | 0 | 0 | 0 | 0 | 0 | 2 | 0 | 0
COc1cc2c(cc1OC)/C(=C/c1ccc(O)cc1)C(=O)N2 (10 µM) | inactive: 0 | inactive: 0 | inactive: 0 | inactive: 0 | inactive: 0 | inactive: 0 | inactive: 0 | inactive: 0 | 0 | 0 | 0 | 0 | 0 | 0 | 0 | 0 | 0 | 0 | 0 | 0
CCNC(=O)C#Cc1ccc2c(C(=Nc3ccc(CN(C)C)cc3)c3ccccc3)c(O)[nH]c2c1 (2.5 µM) | inactive: 0 | inactive: 0 | inactive: 0 | inactive: 0 | inactive: 0 | inactive: 0 | inactive: 0 | inactive: 0 | 0 | 0 | 0 | 0 | 0 | 0 | 0 | 0 | 0 | 0 | 0 | 0
O=C(NCCO)c1cc(C(=O)NCCO)cc(C(=O)NCCO)c1 (10 µM) | inactive: 0 | inactive: 0 | inactive: 0 | inactive: 0 | inactive: 0 | inactive: 0 | inactive: 0 | inactive: 0 | 0 | 0 | 0 | 0 | 0 | 0 | 0 | 0 | 0 | 0 | 0 | 0
CO[C@H]1CC[C@H](N2C(=O)CNc3ncc(-c4ccc(C(C)(C)O)nc4)nc32)CC1 (2.5 µM) | inactive: 0 | inactive: 0 | inactive: 0 | inactive: 0 | inactive: 0 | inactive: 0 | inactive: 0 | inactive: 0 | 0 | 0 | 0 | 0 | 0 | 0 | 0 | 0 | 0 | 0 | 1 | 0
N#Cc1ccc2ncnc(NCCc3ccccc3)c2c1 [Senexin A] (10 µM) | inactive: 0 | inactive: 0 | inactive: 0 | inactive: 0 | inactive: 0 | inactive: 0 | inactive: 0 | inactive: 0 | 0 | 0 | 0 | 0 | 0 | 0 | 0 | 0 | 0 | 0 | 0 | 0
COc1cc2c(cc1Nc1ncc(C(N)=O)c(Nc3c(F)cccc3C(F)(F)F)n1)CN(C)CC2 (2.5 µM) | inactive: 0 | inactive: 0 | inactive: 0 | inactive: 0 | inactive: 0 | inactive: 0 | inactive: 0 | inactive: 0 | 0 | 0 | 0 | 0 | 0 | 0 | 0 | 1 | 0 | 0 | 0 | 0
Cc1cc(Nc2cc(N)ncn2)c(=O)n2c1C(=O)NC21CCCCC1 [Tomivosertib] (10 µM) | inactive: 0 | inactive: 0 | inactive: 0 | inactive: 0 | inactive: 0 | inactive: 0 | inactive: 0 | inactive: 0 | 0 | 0 | 0 | 0 | 0 | 0 | 0 | 0 | 0 | 0 | 0 | 0
O=c1c2c([nH]n1-c1nc3ccccc3s1)CCCC2 (10 µM) | inactive: 0 | inactive: 0 | inactive: 0 | inactive: 0 | inactive: 0 | inactive: 0 | inactive: 0 | inactive: 0 | 0 | 0 | 0 | 0 | 0 | 0 | 0 | 0 | 0 | 0 | 0 | 0
Nc1[nH]nc2nc(-c3ccc(NS(=O)(=O)c4cc(Cl)ccc4Cl)cc3)cnc12 (10 µM) | inactive: 0 | inactive: 0 | inactive: 0 | inactive: 0 | inactive: 0 | inactive: 0 | inactive: 0 | inactive: 0 | 0 | 0 | 0 | 0 | 0 | 0 | 0 | 0 | 0 | 0 | 0 | 0
NCCOc1ccc(Cl)cc1C(=O)Nc1ccc([N+](=O)[O-])cc1Cl [HJC0152 hydrochloride] (2 µM) | inactive: 0 | inactive: 0 | inactive: 0 | inactive: 0 | inactive: 0 | inactive: 0 | inactive: 0 | inactive: 0 | 0 | 0 | 0 | 0 | 0 | 0 | 0 | 0 | 0 | 0 | 0 | 0

2 entries from above, reformatted:
Compound	kinase-Nluc reporter destabilization hit call [1]	kinase-Nluc reporter destabilization hit call [2]	kinase-Nluc reporter destabilization hit call [3]	kinase-Nluc reporter destabilization hit call [4]	kinase-Nluc reporter destabilization hit call [5]	kinase-Nluc reporter destabilization hit call [6]	kinase-Nluc reporter destabilization hit call [7]	kinase-Nluc reporter destabilization hit call [8]	number of time points [9]	number of time points [10]	number of time points [11]	number of time points [12]	number of time points [13]	number of time points [14]	number of time points [15]	number of time points [16]	number of time points [17]	number of time points [18]	number of time points [19]	number of time points [20]
Nc1[nH]nc2nc(-c3ccc(NS(=O)(=O)c4cc(Cl)ccc4Cl)cc3)cnc12 (10 µM)	inactive: 0	inactive: 0	inactive: 0	inactive: 0	inactive: 0	inactive: 0	inactive: 0	inactive: 0	0	0	0	0	0	0	0	0	0	0	0	0
NCCOc1ccc(Cl)cc1C(=O)Nc1ccc([N+](=O)[O-])cc1Cl [HJC0152 hydrochloride] (2 µM)	inactive: 0	inactive: 0	inactive: 0	inactive: 0	inactive: 0	inactive: 0	inactive: 0	inactive: 0	0	0	0	0	0	0	0	0	0	0	0	0
